The data set in a line: Long-term/accelerated stability.

Further values from the same series stand in other lists.

For the compound `CC(C)(C#Cc1nc(C(Cc2cc(F)cc(F)c2)NC(=O)Cn2nc(C(F)(F)F)c3c2C(F)(F)C2CC32)c(-c2ccc(Cl)c3c([N-]S(C)(=O)=O)nn(CC(F)(F)F)c23)c2c1CCC2)S(C)(=O)=O.C[N+](C)(C)CCO` (stereo not shown) [Crystal form B of the choline salt], the Purity % by setting is: (4° C., 1 month) 98.38%; (4° C., 2 months) 98.31%; (4° C., 3 months) 98.28%; (4° C., 6 months) 98.30%; (4° C., Start) 98.34%; (25° C., 60% RH, 1 month) 98.37%. The Purity % worked out at 98.36% (25° C., 60% RH, 2 months); 98.29% (25° C., 60% RH, 3 months); 98.25% (25° C., 60% RH, 6 months); 98.34% (25° C., 60% RH, Start); 98.37% (40° C., 75% RH, 1 month); 98.32% (40° C., 75% RH, 2 months). The Purity % was determined as 98.28% (40° C., 75% RH, 3 months); 98.23% (40° C., 75% RH, 6 months); 98.34% (40° C., 75% RH, Start).

The compound `CC(C)(C#Cc1nc(C(Cc2cc(F)cc(F)c2)NC(=O)Cn2nc(C(F)(F)F)c3c2C(F)(F)C2CC32)c(-c2ccc(Cl)c3c([N-]S(C)(=O)=O)nn(CC(F)(F)F)c23)c2c1CCC2)S(C)(=O)=O.[Na+]` (stereo not shown) [Crystal form III of the sodium salt] returned a Purity % (25° C., 60% RH, 1 month) of 98.34%; a Purity % (25° C., 60% RH, 2 months) of 98.22%; a Purity % (25° C., 60% RH, 3 months) of 98.28%; a Purity % (25° C., 60% RH, 6 months) of 98.20%; a Purity % (25° C., 60% RH, Start) of 98.32%; a Purity % (40° C., 75% RH, 1 month) of 98.25%. In addition, the Purity % reads like this: (40° C., 75% RH, 2 months) 98.22%; (40° C., 75% RH, 3 months) 98.27%; (40° C., 75% RH, 6 months) 98.23%; (40° C., 75% RH, Start) 98.32%.

On to `CC(C)(C#Cc1nc(C(Cc2cc(F)cc(F)c2)NC(=O)Cn2nc(C(F)(F)F)c3c2C(F)(F)C2CC32)c(-c2ccc(Cl)c3c([N-]S(C)(=O)=O)nn(CC(F)(F)F)c23)c2c1CCC2)S(C)(=O)=O.[K+]` (stereo not shown) [Crystal form a of the potassium salt], for which the Purity % is, setting by setting: (4° C., 1 month) 98.02%; (4° C., 2 months) 97.99%; (4° C., 3 months) 98.04%; (4° C., 6 months) 98.01%; (4° C., Start) 98.03%; (25° C., 60% RH, 1 month) 98.02%. The Purity % (25° C., 60% RH, 2 months) was 98.00%; the Purity % (25° C., 60% RH, 3 months) is on record as 98.04%; the Purity % (25° C., 60% RH, 6 months) came out at 98.01%; the Purity % (25° C., 60% RH, Start) is on record as 98.03%; the Purity % (40° C., 75% RH, 1 month) worked out at 98.04%; the Purity % (40° C., 75% RH, 2 months) is on record as 98.06%. In addition, the Purity % is given as 98.08% (40° C., 75% RH, 3 months); 97.99% (40° C., 75% RH, 6 months); 98.03% (40° C., 75% RH, Start).

The record behind these values is US20250320194A1, “PHARMACEUTICALLY ACCEPTABLE SALT AND CRYSTAL FORM OF FUSED PYRIDINE RING DERIVATIVE AND PREPARATION METHOD THEREFOR” (Jiangsu Hengrui Pharmaceuticals Co., Ltd., priority 2021, published 2025).
